Data taken from paper PMC10800070.

Biological target: T1, Rasal1 (mouse (endogenous in mouse hippocampus)) (UniProt Q9Z268)
T1 sequence: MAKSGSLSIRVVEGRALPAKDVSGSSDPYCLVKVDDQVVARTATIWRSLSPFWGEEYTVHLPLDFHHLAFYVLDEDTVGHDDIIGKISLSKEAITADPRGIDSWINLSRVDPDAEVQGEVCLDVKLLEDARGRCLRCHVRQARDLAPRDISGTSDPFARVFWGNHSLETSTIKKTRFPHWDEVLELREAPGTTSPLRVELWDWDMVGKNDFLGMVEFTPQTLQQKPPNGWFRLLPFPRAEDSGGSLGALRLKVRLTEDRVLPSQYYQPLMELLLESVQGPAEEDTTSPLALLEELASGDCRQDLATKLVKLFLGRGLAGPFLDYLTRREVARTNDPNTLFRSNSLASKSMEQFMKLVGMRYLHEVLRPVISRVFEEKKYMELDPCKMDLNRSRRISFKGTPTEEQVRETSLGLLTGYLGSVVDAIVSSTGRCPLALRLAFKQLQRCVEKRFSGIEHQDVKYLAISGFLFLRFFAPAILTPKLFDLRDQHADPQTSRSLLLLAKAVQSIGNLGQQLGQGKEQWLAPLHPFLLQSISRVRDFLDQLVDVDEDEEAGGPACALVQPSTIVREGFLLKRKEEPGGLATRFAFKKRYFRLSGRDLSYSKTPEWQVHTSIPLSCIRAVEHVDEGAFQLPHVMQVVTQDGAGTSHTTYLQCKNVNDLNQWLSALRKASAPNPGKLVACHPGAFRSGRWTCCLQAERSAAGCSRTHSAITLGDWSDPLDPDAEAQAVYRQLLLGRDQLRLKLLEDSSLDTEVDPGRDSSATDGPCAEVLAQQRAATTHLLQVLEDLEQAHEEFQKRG
Assay: co-IP; hippocampal protein (300 μg) incubated with Protein A/G Plus-Agarose beads pretreated with Rasal1 antibody (GenScript) at 4 °C; washed five times with RIPA buffer; Western blot

Row | Substance | binding
1 | protein kinase C (PKC) (mouse (endogenous in mouse brain tissue)) (enzyme) | binds
2 | β-tubulin (mouse (endogenous in mouse brain tissue)) | binds

No constants are given. Whether binding was seen depends on the method and setting. In cells and extracts the contact can be indirect. Binding can be weak; no strength is given.
